In the supplement of paper PMC8728848:
Some of the results follow.

How the values were obtained:
Test in all cases: glycan array binding signal (z-score within array); higher = stronger binding
Conditions in all cases: glycan notation: IUPAC condensed, linker removed
[1] = target: GalNAc(b1-4)GlcNAc(b1-2)Man
How it was run: (§1)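 The Consortium for Functional Glycomics database supplied 3228 glycan arrays, of which those lacking an available protein sequence were dropped. The binding signal, a within-array Z-score, was averaged across arrays of the same protein sequence and across linkers. Negative scores can be read as non-binding.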

[2] = target: GalNAc(b1-4)GlcNAc(b1-2)Man(a1-3)[GalNAc(b1-4)GlcNAc(b1-2)Man(a1-6)]Man(b1-4)GlcNAc(b1-4)GlcNAc
How it was run: as §1

[3] = target: GalNAc(b1-4)GlcNAc(b1-3)GalNAc(b1-4)GlcNAc
How it was run: as §1

[4] = target: GalNAc(b1-4)GlcNAc6S
How it was run: as §1

[5] = target: GalNAc(b1-6)GalNAc
How it was run: as §1

[6] = target: GalNAc3S(b1-4)GlcNAc
How it was run: as §1

[7] = target: GalNAc3S(b1-4)GlcNAc3S
How it was run: as §1

[8] = target: GalNAc3S(b1-4)[Fuc(a1-3)]GlcNAc
How it was run: as §1

[9] = target: GalNAc4S6S(b1-4)GlcNAc
How it was run: as §1

[10] = target: GalNAc6S(b1-4)GlcNAc
How it was run: as §1

[11] = target: Glc(a1-4)Glc
How it was run: as §1

[12] = target: Glc(a1-4)Glc(a1-4)Glc(a1-4)Glc
How it was run: as §1

[13] = target: Glc(a1-6)Glc(a1-6)Glc
How it was run: as §1

[14] = target: Glc(a1-6)Glc(a1-6)Glc(a1-6)Glc
How it was run: as §1

[15] = target: Glc(b1-4)Glc
How it was run: as §1

[16] = target: Glc(b1-6)Glc
How it was run: as §1

[17] = target: GlcA(b1-3)Gal
How it was run: as §1

[18] = target: GlcA(b1-3)GlcNAc
How it was run: as §1

[19] = target: GlcA(b1-6)Gal
How it was run: as §1

[20] = target: GlcA3S(b1-3)Gal(b1-4)GlcNAc(b1-2)Man
How it was run: as §1

[21] = target: GlcA3S(b1-3)Gal(b1-4)GlcNAc(b1-3)Gal(b1-4)Glc
How it was run: as §1

[22] = target: GlcNAc(a1-3)Gal(b1-4)GlcNAc
How it was run: as §1

[23] = target: GlcNAc(a1-4)Gal(b1-3)GlcNAc
How it was run: as §1

[24] = target: GlcNAc(a1-4)Gal(b1-4)GalNAc
How it was run: as §1

[25] = target: GlcNAc(a1-4)Gal(b1-4)GlcNAc
How it was run: as §1

[26] = target: GlcNAc(a1-4)Gal(b1-4)GlcNAc(b1-3)Gal(b1-4)Glc
How it was run: as §1

[27] = target: GlcNAc(a1-4)Gal(b1-4)GlcNAc(b1-3)Gal(b1-4)GlcNAc
How it was run: as §1

[28] = target: GlcNAc(a1-4)Gal(b1-4)GlcNAc(b1-3)Gal(b1-4)GlcNAc(b1-3)Gal(b1-4)GlcNAc
How it was run: as §1

[29] = target: GlcNAc(a1-4)Gal(b1-4)GlcNAc(b1-3)Gal(b1-4)[Fuc(a1-3)]GlcNAc(b1-3)Gal(b1-4)[Fuc(a1-3)]GlcNAc
How it was run: as §1

[30] = target: GlcNAc(a1-6)Gal(b1-4)GlcNAc
How it was run: as §1

B1: Awp1 (Candida glabrata) (protein)
chain: MSLITIFAFLIKATLVLSLDILTPTTLTGDQTFNEDVSVVSSLTLNDGSQYLFNNLLQIAPSSASVTANALAAVSVFTFSLPPSSSLSNSGTLIISNSNTGPSTEQHIVITPNVMANTGTITLSLAHTNTDSSSTLIIDPVTFYNTGTINYESIGSETNDPSLTGNILSIGSSGRTLQNLGTINLNAANSYYLLGTITENSGSINVQKGFLYVNALDFIGNTINLSTTTALAFISPVSQVVRVRGVFFGNIIASVGSSGTFSYNTQTGILTVTTNGVYSYDIGCGYNPALMSGQQETLSFQGNPYDTFLVLVNQPIPSDLTCAAVSSSITPSSSVEPSSSVVPSSSVEPSSSVEPSSSVEPSSSVEPSSSVEPSSSVEPSSSVEPSSSVEPSSSVEPSSSVEPSSSVEPSSSVEPSSSVEPSSSVEPSSSVEPSSSVEPSSSVEPSSSVEPSSSVEPSSLIVPSSSVEPSSSVLPSSSVVPSSSVEPSTPPIPSSSVEPSSSVVPSSPAVPSSSVEPSTPPIPSSSVVSASVFDTSSTLPSSPSVPPSSVSPSTISTPSSSAAPSSFCPTCVSSGTPPAPSSSAIVPTSSAGGGNGGDNREPGAAGQPGAAGQPGAAGQPGAAGQPGAAGQPGAAGQPGAAGQPGAAGQPGAAGQPGAAGQPGAGFGVGSEQPTPGAGAGSGSADGNQSGTGSGTGNGQQGSGQAGSGQAGSGQEGSGQAGSGQAGSGQAGSGQAGSGQAGLDNTASGQSEGGQASAMDGDQSGRDGQSNSGSLLQPNAQQGTGSGTGSDIGADQASGESPGQIGDAQPGSGTDQSSGRHSLAAEARTSQSHSLAADARTRSTTRQTSVIAPDTAPGTASGTAPGTAPGTAVVTTFHGCGTVNHKGMINILLALALLVLL
Q: For B1, which “glycan array binding signal (z-score)” value [1] is on record?
A: Its value is -1.79.

Q: What about the “glycan array binding signal (z-score)” value [2] of the same binder?
A: The value was 0.147.

Q: And the “glycan array binding signal (z-score)” value [3]?
A: The value was 1.95.

Q: What about the “glycan array binding signal (z-score)” value [4] of the same binder?
A: Its value is -0.514.

Q: And the “glycan array binding signal (z-score)” value [5]?
A: Its value is 2.29.

Q: What about the “glycan array binding signal (z-score)” value [6] of the same binder?
A: The value was 0.145.

Q: What about the “glycan array binding signal (z-score)” value [7] of the same binder?
A: Its value is -0.122.

Q: What about the “glycan array binding signal (z-score)” value [8] of the same binder?
A: The value was -0.247.

Q: What about the “glycan array binding signal (z-score)” value [9] of the same binder?
A: The value was 1.51.

Q: And the “glycan array binding signal (z-score)” value [10]?
A: Its value is 1.42.

Q: And the “glycan array binding signal (z-score)” value [11]?
A: The value was -0.3.

Q: And the “glycan array binding signal (z-score)” value [12]?
A: The value was 0.159.

Q: And the “glycan array binding signal (z-score)” value [13]?
A: The value was -0.842.

Q: And the “glycan array binding signal (z-score)” value [14]?
A: Its value is -1.38.

Q: And the “glycan array binding signal (z-score)” value [15]?
A: The value was -0.497.

Q: And the “glycan array binding signal (z-score)” value [16]?
A: Its value is -0.716.

Q: And the “glycan array binding signal (z-score)” value [17]?
A: The value was 0.728.

Q: What about the “glycan array binding signal (z-score)” value [18] of the same binder?
A: Its value is -0.501.

Q: And the “glycan array binding signal (z-score)” value [19]?
A: The value was -0.088.

Q: And the “glycan array binding signal (z-score)” value [20]?
A: Its value is 0.488.

Q: And the “glycan array binding signal (z-score)” value [21]?
A: Its value is 0.4.

Q: And the “glycan array binding signal (z-score)” value [22]?
A: Its value is 1.21.

Q: And the “glycan array binding signal (z-score)” value [23]?
A: The value was 0.179.

Q: And the “glycan array binding signal (z-score)” value [24]?
A: Its value is -0.667.

Q: And the “glycan array binding signal (z-score)” value [25]?
A: The value was 0.107.

Q: And the “glycan array binding signal (z-score)” value [26]?
A: The value was -0.309.

Q: And the “glycan array binding signal (z-score)” value [27]?
A: Its value is -0.539.

Q: And the “glycan array binding signal (z-score)” value [28]?
A: The value was 1.35.

Q: What about the “glycan array binding signal (z-score)” value [29] of the same binder?
A: Its value is 0.05.

Q: And the “glycan array binding signal (z-score)” value [30]?
A: The value was -0.703.
